# According to the supplement of paper PMC8728848:
# The list shows a part of the results.
# B1: SP15308C-bot-338-23-338 (Bacteroides ovatus) (protein)
# chain: DEWTDEQFKQLISFKTQPGGWGVTDVHVRYANSAKYTYNLPVLVSGSTDNTDDRLVSFSLRDDTLDILNFEKFGNRPELYFRELPQKYYSFPKELTIPAGQSHALLPIEFSLDGLDDSQKWALPLKVCEDANGTYAVNPRKYYRTAVLRPILFNEFSGRFSGSSLLGTMAGESDIKFSSTEIKLNVVTDSIVFFYAGQRTEDYEDRINYKVFLQFTGDKVDSKKDLYKMKIWAENEKLKFNSYSTPTYKVSSEMDATKTYLKHTYIVISDIDFDFVDYTSVPNYEIEYNMKGGLSVSRDLDTRKPDEDQGSDSKWW
# Tests used:
# Test in all cases: glycan array binding signal (z-score within array); higher = stronger binding
# Conditions in all cases: glycan notation: IUPAC condensed, linker removed
# [1] = target: Gal(b1-4)GlcNAc(b1-3)Gal(b1-4)GlcNAc(b1-3)Gal(b1-4)GlcNAc(b1-3)Gal(b1-4)GlcNAc(b1-2)Man(a1-3)[Gal(b1-4)GlcNAc(b1-3)Gal(b1-4)GlcNAc(b1-3)Gal(b1-4)GlcNAc(b1-3)Gal(b1-4)GlcNAc(b1-2)Man(a1-6)]Man(b1-4)GlcNAc(b1-4)GlcNAc
# Summary of the method: (§1)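 Arrays were curated from the Consortium for Functional Glycomics database, 3228 in total, and kept only where the protein sequence was available. Binding is expressed as a within-array Z-score. This score was averaged across arrays of the same protein sequence at different concentrations or buffers and across linkers, and negative values can be read as non-binding.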
# [2] = target: Gal(b1-4)GlcNAc(b1-3)Gal(b1-4)GlcNAc(b1-3)Gal(b1-4)GlcNAc(b1-3)Gal(b1-4)GlcNAc(b1-2)Man(a1-3)[Gal(b1-4)GlcNAc(b1-3)Gal(b1-4)GlcNAc(b1-3)Gal(b1-4)GlcNAc(b1-3)Gal(b1-4)GlcNAc(b1-2)Man(a1-6)]Man(b1-4)GlcNAc(b1-4)[Fuc(a1-6)]GlcNAc
# Summary of the method: as §1
# [3] = target: Gal(b1-4)GlcNAc(b1-3)Gal(b1-4)GlcNAc(b1-3)Gal(b1-4)GlcNAc(b1-3)Gal(b1-4)GlcNAc(b1-2)[Gal(b1-4)GlcNAc(b1-3)Gal(b1-4)GlcNAc(b1-3)Gal(b1-4)GlcNAc(b1-3)Gal(b1-4)GlcNAc(b1-6)]Man(a1-6)[Gal(b1-4)GlcNAc(b1-3)Gal(b1-4)GlcNAc(b1-3)Gal(b1-4)GlcNAc(b1-3)Gal(b1-4)GlcNAc(b1-2)Man(a1-3)]Man(b1-4)GlcNAc(b1-4)[Fuc(a1-6)]GlcNAc
# Summary of the method: as §1
# [4] = target: Gal(b1-4)GlcNAc(b1-3)Gal(b1-4)GlcNAc(b1-3)Gal(b1-4)GlcNAc(b1-3)Gal(b1-4)GlcNAc(b1-3)Gal(b1-4)GlcNAc(b1-2)Man(a1-3)[Gal(b1-4)GlcNAc(b1-3)Gal(b1-4)GlcNAc(b1-3)Gal(b1-4)GlcNAc(b1-3)Gal(b1-4)GlcNAc(b1-3)Gal(b1-4)GlcNAc(b1-2)Man(a1-6)]Man(b1-4)GlcNAc(b1-4)GlcNAc
# Summary of the method: as §1
# [5] = target: Gal(b1-4)GlcNAc(b1-3)Gal(b1-4)GlcNAc(b1-3)Gal(b1-4)GlcNAc(b1-3)Gal(b1-4)GlcNAc(b1-3)Gal(b1-4)GlcNAc(b1-2)Man(a1-3)[Gal(b1-4)GlcNAc(b1-3)Gal(b1-4)GlcNAc(b1-3)Gal(b1-4)GlcNAc(b1-3)Gal(b1-4)GlcNAc(b1-3)Gal(b1-4)GlcNAc(b1-2)Man(a1-6)]Man(b1-4)GlcNAc(b1-4)[Fuc(a1-6)]GlcNAc
# Summary of the method: as §1
# [6] = target: Gal(b1-4)GlcNAc(b1-3)Gal(b1-4)GlcNAc(b1-3)Gal(b1-4)GlcNAc(b1-3)Gal(b1-4)GlcNAc(b1-3)Gal(b1-4)GlcNAc(b1-2)[Gal(b1-4)GlcNAc(b1-3)Gal(b1-4)GlcNAc(b1-3)Gal(b1-4)GlcNAc(b1-3)Gal(b1-4)GlcNAc(b1-3)Gal(b1-4)GlcNAc(b1-6)]Man(a1-6)[Gal(b1-4)GlcNAc(b1-3)Gal(b1-4)GlcNAc(b1-3)Gal(b1-4)GlcNAc(b1-3)Gal(b1-4)GlcNAc(b1-3)Gal(b1-4)GlcNAc(b1-2)Man(a1-3)]Man(b1-4)GlcNAc(b1-4)[Fuc(a1-6)]GlcNAc
# Summary of the method: as §1
# [7] = target: Gal(b1-4)GlcNAc(b1-3)Gal(b1-4)GlcNAc(b1-3)Gal(b1-4)GlcNAc(b1-3)Gal(b1-4)GlcNAc(b1-3)Gal(b1-4)GlcNAc(b1-3)Gal(b1-4)GlcNAc(b1-2)Man(a1-3)[Gal(b1-4)GlcNAc(b1-3)Gal(b1-4)GlcNAc(b1-3)Gal(b1-4)GlcNAc(b1-3)Gal(b1-4)GlcNAc(b1-3)Gal(b1-4)GlcNAc(b1-3)Gal(b1-4)GlcNAc(b1-2)Man(a1-6)]Man(b1-4)GlcNAc(b1-4)GlcNAc
# Summary of the method: as §1
# [8] = target: Gal(b1-4)GlcNAc(b1-3)Gal(b1-4)GlcNAc(b1-3)GalNAc
# Summary of the method: as §1
# [9] = target: Gal(b1-4)GlcNAc(b1-3)Gal(b1-4)GlcNAc(b1-3)[Gal(b1-4)GlcNAc(b1-3)Gal(b1-4)GlcNAc(b1-6)]GalNAc
# Summary of the method: as §1
# [10] = target: Gal(b1-4)GlcNAc(b1-3)Gal(b1-4)GlcNAc(b1-6)[Gal(b1-3)]GalNAc
# Summary of the method: as §1
# [11] = target: Gal(b1-4)GlcNAc(b1-3)Gal(b1-4)[Fuc(a1-3)]GlcNAc(b1-3)Gal(b1-4)[Fuc(a1-3)]GlcNAc
# Summary of the method: as §1
# [12] = target: Gal(b1-4)GlcNAc(b1-3)GalNAc
# Summary of the method: as §1
# [13] = target: Gal(b1-4)GlcNAc(b1-3)[Fuc(a1-3)GlcNAc(b1-6)]Gal(b1-4)Glc
# Summary of the method: as §1
# [14] = target: Gal(b1-4)GlcNAc(b1-3)[Gal(b1-4)GlcNAc(b1-6)]Gal(b1-4)GlcNAc
# Summary of the method: as §1
# [15] = target: Gal(b1-4)GlcNAc(b1-3)[GlcNAc(b1-6)]Gal(b1-4)GlcNAc
# Summary of the method: as §1
# [16] = target: Gal(b1-4)GlcNAc(b1-6)Gal(b1-4)GlcNAc
# Summary of the method: as §1
# [17] = target: Gal(b1-4)GlcNAc(b1-6)GalNAc
# Summary of the method: as §1
# [18] = target: Gal(b1-4)GlcNAc(b1-6)[Gal(b1-3)]GalNAc
# Summary of the method: as §1
# [19] = target: Gal(b1-4)GlcNAc(b1-6)[Gal(b1-4)GlcNAc(b1-3)]GalNAc
# Summary of the method: as §1
# Gal(b1-4)GlcNAc6P = target: Gal(b1-4)GlcNAc6P
# Summary of the method: as §1
# Gal(b1-6)Gal = target: Gal(b1-6)Gal
# Summary of the method: as §1
# Gal3S(b1-3)GalNAc = target: Gal3S(b1-3)GalNAc
# Summary of the method: as §1
# Gal3S(b1-3)GlcNAc = target: Gal3S(b1-3)GlcNAc
# Summary of the method: as §1
# [20] = target: Gal3S(b1-3)[Fuc(a1-4)]GlcNAc
# Summary of the method: as §1
# Gal3S(b1-4)Glc = target: Gal3S(b1-4)Glc
# Summary of the method: as §1
# Gal3S(b1-4)Glc6S = target: Gal3S(b1-4)Glc6S
# Summary of the method: as §1
# Gal3S(b1-4)GlcNAc = target: Gal3S(b1-4)GlcNAc
# Summary of the method: as §1
# [21] = target: Gal3S(b1-4)[Fuc(a1-3)]Glc6S
# Summary of the method: as §1
# [22] = target: Gal3S(b1-4)[Fuc(a1-3)]GlcNAc
# Summary of the method: as §1
# [23] = target: Gal3S(b1-4)[Fuc(a1-3)]GlcNAc6S
# Summary of the method: as §1
# Gal3S4S(b1-4)GlcNAc = target: Gal3S4S(b1-4)GlcNAc
# Summary of the method: as §1
# Gal3S6S(b1-4)GlcNAc = target: Gal3S6S(b1-4)GlcNAc
# Summary of the method: as §1
# Gal3S6S(b1-4)GlcNAc6S = target: Gal3S6S(b1-4)GlcNAc6S
# Summary of the method: as §1
# Gal4S(b1-4)GlcNAc = target: Gal4S(b1-4)GlcNAc
# Summary of the method: as §1
# Gal4S6S(b1-4)GlcNAc = target: Gal4S6S(b1-4)GlcNAc
# Summary of the method: as §1
# Gal6P(b1-4)GlcNAc = target: Gal6P(b1-4)GlcNAc
# Summary of the method: as §1
# Gal6S(b1-3)GlcNAc = target: Gal6S(b1-3)GlcNAc
# Summary of the method: as §1
# Gal6S(b1-3)GlcNAc6S = target: Gal6S(b1-3)GlcNAc6S
# Summary of the method: as §1
binder,measurement,setting,value
B1,glycan array binding signal (z-score),[1],0.102
same,glycan array binding signal (z-score),[2],1.51
same,glycan array binding signal (z-score),[3],1.89
same,glycan array binding signal (z-score),[4],2.06
same,glycan array binding signal (z-score),[5],2.46
same,glycan array binding signal (z-score),[6],6.22
same,glycan array binding signal (z-score),[7],0.957
same,glycan array binding signal (z-score),[8],-0.235
same,glycan array binding signal (z-score),[9],0.534
same,glycan array binding signal (z-score),[10],-0.223
same,glycan array binding signal (z-score),[11],-0.013
same,glycan array binding signal (z-score),[12],-0.42
same,glycan array binding signal (z-score),[13],-0.649
same,glycan array binding signal (z-score),[14],0.136
same,glycan array binding signal (z-score),[15],-0.08
same,glycan array binding signal (z-score),[16],-0.279
same,glycan array binding signal (z-score),[17],-0.147
same,glycan array binding signal (z-score),[18],0.095
same,glycan array binding signal (z-score),[19],0.237
same,glycan array binding signal (z-score),Gal(b1-4)GlcNAc6P,-0.041
same,glycan array binding signal (z-score),Gal(b1-6)Gal,-0.259
same,glycan array binding signal (z-score),Gal3S(b1-3)GalNAc,-0.134
same,glycan array binding signal (z-score),Gal3S(b1-3)GlcNAc,0.427
same,glycan array binding signal (z-score),[20],-0.235
same,glycan array binding signal (z-score),Gal3S(b1-4)Glc,-0.591
same,glycan array binding signal (z-score),Gal3S(b1-4)Glc6S,-0.188
same,glycan array binding signal (z-score),Gal3S(b1-4)GlcNAc,-0.103
same,glycan array binding signal (z-score),[21],0.68
same,glycan array binding signal (z-score),[22],0.231
same,glycan array binding signal (z-score),[23],0.431
same,glycan array binding signal (z-score),Gal3S4S(b1-4)GlcNAc,-0.024
same,glycan array binding signal (z-score),Gal3S6S(b1-4)GlcNAc,-0.862
same,glycan array binding signal (z-score),Gal3S6S(b1-4)GlcNAc6S,0.13
same,glycan array binding signal (z-score),Gal4S(b1-4)GlcNAc,-0.375
same,glycan array binding signal (z-score),Gal4S6S(b1-4)GlcNAc,0.444
same,glycan array binding signal (z-score),Gal6P(b1-4)GlcNAc,-0.444
same,glycan array binding signal (z-score),Gal6S(b1-3)GlcNAc,1.78
same,glycan array binding signal (z-score),Gal6S(b1-3)GlcNAc6S,0.585

# A portion from the list above:
binder,measurement,setting,value
B1,glycan array binding signal (z-score),Gal3S6S(b1-4)GlcNAc6S,0.13
same,glycan array binding signal (z-score),Gal4S(b1-4)GlcNAc,-0.375
